doi:10.1101/2021.01.27.428547

Amino acid sequences for entries named in this document (tags omitted). A change or cut given only in a name is not applied to a line headed by its entry.
UniProt Q4F883: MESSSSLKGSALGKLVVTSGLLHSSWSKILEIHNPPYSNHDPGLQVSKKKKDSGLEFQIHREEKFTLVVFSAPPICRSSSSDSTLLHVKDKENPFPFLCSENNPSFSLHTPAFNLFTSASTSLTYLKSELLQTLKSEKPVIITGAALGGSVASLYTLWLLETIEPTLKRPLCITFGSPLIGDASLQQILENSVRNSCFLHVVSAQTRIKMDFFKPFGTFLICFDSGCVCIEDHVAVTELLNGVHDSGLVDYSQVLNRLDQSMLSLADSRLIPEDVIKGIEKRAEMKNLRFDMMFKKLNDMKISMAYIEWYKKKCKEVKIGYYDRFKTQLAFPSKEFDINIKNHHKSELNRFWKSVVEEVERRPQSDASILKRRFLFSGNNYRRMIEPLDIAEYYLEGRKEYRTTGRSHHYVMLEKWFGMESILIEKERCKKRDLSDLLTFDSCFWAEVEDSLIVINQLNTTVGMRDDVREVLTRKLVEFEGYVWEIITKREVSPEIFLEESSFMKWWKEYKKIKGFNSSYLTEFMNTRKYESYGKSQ
UniProt Q9SU72: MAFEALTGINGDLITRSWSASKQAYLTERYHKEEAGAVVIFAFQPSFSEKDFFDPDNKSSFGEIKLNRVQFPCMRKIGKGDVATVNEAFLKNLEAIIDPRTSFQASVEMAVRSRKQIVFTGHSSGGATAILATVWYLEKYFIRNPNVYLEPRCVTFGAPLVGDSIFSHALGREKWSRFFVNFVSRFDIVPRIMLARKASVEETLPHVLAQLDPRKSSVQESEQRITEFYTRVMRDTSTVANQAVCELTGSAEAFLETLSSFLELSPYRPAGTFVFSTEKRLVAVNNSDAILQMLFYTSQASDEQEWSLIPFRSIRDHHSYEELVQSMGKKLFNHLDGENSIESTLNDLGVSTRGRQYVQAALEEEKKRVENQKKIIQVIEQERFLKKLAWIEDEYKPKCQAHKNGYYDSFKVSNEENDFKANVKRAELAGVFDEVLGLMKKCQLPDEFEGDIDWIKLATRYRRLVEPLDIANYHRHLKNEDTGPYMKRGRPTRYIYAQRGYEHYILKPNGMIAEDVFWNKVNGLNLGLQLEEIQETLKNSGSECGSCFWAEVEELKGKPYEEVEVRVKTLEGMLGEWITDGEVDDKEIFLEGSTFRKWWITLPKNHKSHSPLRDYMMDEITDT

Target: SAG101-3FLAG (in A. thaliana) (A. thaliana) (UniProt Q4F883)
Assay: co-IP

Question: With “EDS1 (endogenous, A. thaliana) (from UniProt Q9SU72)” as the substance, how does the binding read?
Answer: binds

Results are given in words; binding and its absence hold for the method and conditions named. In cells and extracts the contact can be indirect. Binding calls can cover weak binding; strength is not graded here.
